# In all, about 320,000 compounds went through this assay and about 620 (0.19%) were called active. The shares of active, inactive and inconclusive entries below differ from those in the screen. No stated cut-off is given here; in the data, active means activation above about 80%; inconclusive means between about 30% and that limit; inactive means weaker than that.
# By UniProt entry, the sequences of proteins in these tests, tags left out.
# UniProt Q8NER1, whole entry, looked up: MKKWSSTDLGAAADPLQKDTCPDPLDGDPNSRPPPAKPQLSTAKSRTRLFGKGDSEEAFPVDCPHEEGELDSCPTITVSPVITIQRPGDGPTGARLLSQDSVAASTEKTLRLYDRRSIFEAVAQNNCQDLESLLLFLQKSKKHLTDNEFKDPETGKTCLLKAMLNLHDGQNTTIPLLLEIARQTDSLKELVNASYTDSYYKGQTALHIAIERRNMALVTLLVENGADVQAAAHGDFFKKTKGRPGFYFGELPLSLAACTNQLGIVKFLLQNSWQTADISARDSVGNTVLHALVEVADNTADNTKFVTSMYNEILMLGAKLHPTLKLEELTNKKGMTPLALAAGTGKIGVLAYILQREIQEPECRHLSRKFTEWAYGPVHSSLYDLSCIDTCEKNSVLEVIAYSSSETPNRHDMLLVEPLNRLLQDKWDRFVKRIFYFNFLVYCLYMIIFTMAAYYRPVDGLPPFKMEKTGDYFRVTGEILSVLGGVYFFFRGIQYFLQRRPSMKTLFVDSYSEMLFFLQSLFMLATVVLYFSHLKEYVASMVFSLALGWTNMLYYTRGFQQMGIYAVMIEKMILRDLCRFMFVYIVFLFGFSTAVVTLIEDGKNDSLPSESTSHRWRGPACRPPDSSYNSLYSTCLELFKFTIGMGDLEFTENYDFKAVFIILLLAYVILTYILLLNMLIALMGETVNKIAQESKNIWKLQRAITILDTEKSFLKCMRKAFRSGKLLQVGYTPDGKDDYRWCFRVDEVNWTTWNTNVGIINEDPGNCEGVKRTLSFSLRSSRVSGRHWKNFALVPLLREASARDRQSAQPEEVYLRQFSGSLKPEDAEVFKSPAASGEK
# Target: Transient receptor potential cation channel subfamily V member 1 (Homo sapiens) (UniProt Q8NER1)
# Test: HTS Assay for Compounds that Act as Agonists of the Vanilloid Receptor 1; further: 0% is about no effect
# Settings: TRPV1-expressing cells, Fluo-8 calcium influx, agonist mode; at 8.33 µM, hits give high values
# Procedure, shortened: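 Cells expressing TRPV1 were dye-loaded with Fluo-8 and read kinetically: 10 s baseline, 3 min after compound (agonist portion), then 2 min after EC20 capsaicin (allosteric enhancer portion). Calcium-bound dye fluorescence at 480/520 nm.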
row,Structure (SMILES),activation
1,O=C(NCc1cccs1)C1CCN(S(=O)(=O)c2ccc(Br)s2)CC1,inconclusive: 30.5%
2,Cc1cc(-c2csc(NC(=O)c3ccc(S(=O)(=O)N(C)C)cc3)n2)c(C)n1-c1ccccc1,inactive: -2.43%
3,CCn1c(SCC(=O)c2c(N)n(C)c(=O)n(C)c2=O)nc2sc(C)c(C)c2c1=O,inconclusive: 38.7%
4,CC(C)c1ccc(C(=O)CSc2n[nH]c(-c3ccncc3)n2)cc1,inconclusive: 52.6%
5,Cc1cccc(NC(=O)c2ccccc2NC(=O)c2ccccc2)n1,inconclusive: 54.4%
6,CNC(=O)c1csc(-c2ccncc2)n1,inactive: 1.69%
7,Cc1ccc2c(c1)N(CCC(=O)NCc1cccs1)C(=O)C(C)O2 (configuration not stated),inconclusive: 39.4%
8,COc1ccc(-c2c(C)[nH]n3c(=O)c(Cc4ccccc4)c(C)nc23)cc1,inconclusive: 31.4%
9,CN(C)S(=O)(=O)Oc1ccc(C(=O)Nc2cccc(C(F)(F)F)c2)cc1,inconclusive: 31.5%
10,CCCS(=O)(=O)N1CCN=C1SCc1cccc(C)c1,inactive: 5.62%
11,COc1ccc(NC(=S)N2CCN(Cc3ccc(C)cc3)CC2)cc1,inactive: 0.235%
12,Cc1cc(C)nc(N2CCCC(C(=O)NC3CCCC3)C2)n1 (configuration not stated),inactive: 7.12%
13,O=C(CSCc1ccccc1)Nc1ccc(F)cc1F,inconclusive: 38.5%
14,CC(C)N=C(NC#N)SCc1ccc(Br)cc1,inconclusive: 31.8%
15,CCCCCOc1ccc(C(=O)OCC(=O)Nc2cc(C)on2)cc1,inactive: 1.76%
16,Cc1ccc(NC(=O)CN2C(=O)CCSc3ccc(S(=O)(=O)N4CCCC4)cc32)cc1,inconclusive: 47%
17,O=[N+]([O-])c1ccc2nc(-c3ccc(Cl)cc3)[nH]c2c1,inconclusive: 42.6%
18,COc1cccc(Cn2cccc(NC(=O)NCc3ccccc3)c2=O)c1,inconclusive: 51.8%
19,Cn1c(=O)cc(OCCCC(=O)NCCC2=CCCCC2)c2ccccc21,inconclusive: 39.3%
20,O=C(Nc1cccc(-c2cnc3ccccc3n2)c1)c1ccccc1,inconclusive: 41.5%
21,O=c1oc2ccc(Br)cc2cc1S(=O)(=O)c1ccc(F)cc1,inconclusive: 33.7%
22,c1ccc(-c2nc(N3CCCCCC3)c3ccccc3n2)nc1,inconclusive: 32.8%
23,Cc1nn(Cc2noc(C(=O)NCc3ccc(F)cc3)n2)c(C)c1Br,inconclusive: 45.2%

row,Structure (SMILES),activation
1,COc1ccc(C(=O)/C=C/c2ccc(N(C)C)cc2)c(OC)c1,inconclusive: 77.3%
2,O=C(Nc1ccncc1)c1ccc2c(c1)C(=O)N(C1CCCCC1)C2=O,inconclusive: 65.5%
3,CC(C)(C)C(=O)/C=c1\s/c(=C\c2ccc(-c3ccc([N+](=O)[O-])cc3)o2)c(=O)n1CC(=O)NC(N)=O,inconclusive: 51.2%
4,COc1ccccc1CN(C)CC(=O)NC1CCCc2ccccc21 (configuration not stated),inconclusive: 42%
5,O=C(Nc1ccccc1C(=O)NCCc1ccc(O)cc1)c1ccco1,inactive: 27.7%
6,Cc1cc(C(=O)NC(C)Cc2ccccc2)cc(C)c1[N+](=O)[O-] (configuration not stated),inconclusive: 44.7%
7,COc1ccc(S(=O)(=O)NCCC(=O)NCc2ccc(F)cc2)cc1,inactive: -0.035%
8,CC(C)CN1C(=O)C(=O)N(CC(=O)N2CCC(Cc3ccccc3)CC2)C1=O,inconclusive: 38.6%
9,Cc1[nH]n(-c2ccccc2)c(=O)c1/C=C1\C=NN=C1c1ccccc1,inactive: -4.32%
10,C=CCOc1c(Cl)cc(CNc2nccs2)cc1OC,inactive: 24%
11,C=CCNC(=O)c1ccc(-c2cccc([N+](=O)[O-])c2)o1,inconclusive: 33.3%
12,Fc1ccc(-c2cc(C(F)(F)F)nc(NCc3cccs3)n2)cc1,inconclusive: 32.5%
13,c1ccc(-n2ncc3c(NCc4cccnc4)ncnc32)cc1,inactive: -1.12%
14,COc1ccc(C(=O)N2CCCC(Nc3ccc(C(C)C)cc3)C2)c(OC)n1 (configuration not stated),inconclusive: 69.6%
15,COc1ccc(CC2S/C(=N/N=C/c3ccccc3O)NC2=O)cc1 (configuration not stated),inactive: -0.983%
16,CC(=O)/C(N=Nc1cc2c(c([N+](=O)[O-])c1C)C(C)(C)CC2(C)C)=C(\C)O,inconclusive: 45.9%
17,CC(C)CC1Nc2ncnc(N3CCCCC3)c2N(Cc2ccc(Br)cc2)C1=O (configuration not stated),active: 81.6%
18,CCCCCCCOc1ccc(C(=O)Nc2cccnc2)cc1,inconclusive: 65.6%
19,CC(=O)Nc1cccc(Nc2nc(-c3ccccc3F)nc3ccccc23)c1,active: 96.2%
20,CCOC(=O)C1CCCN(C(=O)c2ccc3c(=O)n(CCOC)c(=S)[nH]c3c2)C1 (configuration not stated),inactive: 0.315%
21,CCCCCOC(=O)Cc1c(O)c2ccccc2n(C)c1=O,inactive: -1.91%
22,CCOC(=O)c1[nH]c2ccc(Br)cc2c1NC(=O)CCN1CCC(C(=O)OCC)CC1,inconclusive: 32.7%
23,O=C(CCN1CCCCO1)N1CCCC(Nc2cccc(F)c2)C1 (configuration not stated),inconclusive: 70.3%

# Exported with bars between the fields: 20 of the compounds above
row | Structure (SMILES) | activation
1 | COc1ccc(C(=O)/C=C/c2ccc(N(C)C)cc2)c(OC)c1 | inconclusive: 77.3%
2 | O=C(Nc1ccncc1)c1ccc2c(c1)C(=O)N(C1CCCCC1)C2=O | inconclusive: 65.5%
3 | CC(C)(C)C(=O)/C=c1\s/c(=C\c2ccc(-c3ccc([N+](=O)[O-])cc3)o2)c(=O)n1CC(=O)NC(N)=O | inconclusive: 51.2%
4 | COc1ccccc1CN(C)CC(=O)NC1CCCc2ccccc21 (configuration not stated) | inconclusive: 42%
5 | O=C(Nc1ccccc1C(=O)NCCc1ccc(O)cc1)c1ccco1 | inactive: 27.7%
6 | Cc1cc(C(=O)NC(C)Cc2ccccc2)cc(C)c1[N+](=O)[O-] (configuration not stated) | inconclusive: 44.7%
7 | COc1ccc(S(=O)(=O)NCCC(=O)NCc2ccc(F)cc2)cc1 | inactive: -0.035%
8 | CC(C)CN1C(=O)C(=O)N(CC(=O)N2CCC(Cc3ccccc3)CC2)C1=O | inconclusive: 38.6%
9 | Cc1[nH]n(-c2ccccc2)c(=O)c1/C=C1\C=NN=C1c1ccccc1 | inactive: -4.32%
10 | C=CCOc1c(Cl)cc(CNc2nccs2)cc1OC | inactive: 24%
11 | C=CCNC(=O)c1ccc(-c2cccc([N+](=O)[O-])c2)o1 | inconclusive: 33.3%
12 | Fc1ccc(-c2cc(C(F)(F)F)nc(NCc3cccs3)n2)cc1 | inconclusive: 32.5%
13 | c1ccc(-n2ncc3c(NCc4cccnc4)ncnc32)cc1 | inactive: -1.12%
14 | COc1ccc(C(=O)N2CCCC(Nc3ccc(C(C)C)cc3)C2)c(OC)n1 (configuration not stated) | inconclusive: 69.6%
15 | COc1ccc(CC2S/C(=N/N=C/c3ccccc3O)NC2=O)cc1 (configuration not stated) | inactive: -0.983%
16 | CC(=O)/C(N=Nc1cc2c(c([N+](=O)[O-])c1C)C(C)(C)CC2(C)C)=C(\C)O | inconclusive: 45.9%
17 | CC(C)CC1Nc2ncnc(N3CCCCC3)c2N(Cc2ccc(Br)cc2)C1=O (configuration not stated) | active: 81.6%
18 | CCCCCCCOc1ccc(C(=O)Nc2cccnc2)cc1 | inconclusive: 65.6%
19 | CC(=O)Nc1cccc(Nc2nc(-c3ccccc3F)nc3ccccc23)c1 | active: 96.2%
20 | CCOC(=O)C1CCCN(C(=O)c2ccc3c(=O)n(CCOC)c(=S)[nH]c3c2)C1 (configuration not stated) | inactive: 0.315%

# Carrying on:

row,Structure (SMILES),activation
1,O=C(O)CNC(=O)c1ccc(NC(=O)/C(=C/c2ccccc2)NC(=O)c2ccccc2Br)cc1,inactive: -2.84%
2,CSc1ccc(/C=C/C(=O)OCC(=O)NC2CC2)cc1,inconclusive: 57.6%
3,Cc1ccc(NC(=O)Cc2ccc(Cl)c(Cl)c2)cc1S(=O)(=O)N(C)C,inactive: 16%
4,CC(=O)c1cccc(NC(=O)NC(C)c2ccc3c(c2)OCO3)c1 (configuration not stated),inconclusive: 78%
5,O=C(/C=C/Nc1ccc(Oc2ccccc2)cc1)c1ccco1,inconclusive: 40.2%
6,O=C1NC(=O)c2cc(NC(=O)C3COc4ccccc4O3)ccc21 (configuration not stated),inconclusive: 73.9%
7,CCN(Cc1cc(=O)n2ccsc2n1)Cc1nc2ccccc2c(=O)[nH]1,inactive: 2.47%
8,O=C(CCS(=O)(=O)c1ccccc1Cl)NCCC1=CCCCC1,inconclusive: 45.3%
9,COC(=O)CSc1ncnc2scc(-c3ccccc3)c12,inconclusive: 49%
10,CCCCCc1c(C)nc(Nc2ccccc2)[nH]c1=O,inconclusive: 55%
11,CCCCC1CC(C)(C(=O)CSc2nc3ccccc3s2)OC1=O (configuration not stated),inconclusive: 44.2%
12,O=C(NCCNCCO)c1c(O)c2cccc3c2n(c1=O)CCC3,inactive: 2.18%
13,COc1cccc(C2=CC(=O)C[C@H](c3ccc(F)cc3)C2)c1,inconclusive: 48.7%
14,Cc1occc1-c1nnc(SCC(=O)O)n1-c1ccccc1,inactive: 0.985%
15,C=CCN(c1ccc(Cl)cc1)S(=O)(=O)c1cccc(C(=O)OCC(=O)N(C)C)c1,inconclusive: 30.1%
16,O=C(Nc1ccccc1)OCCOc1ccccc1Br,inconclusive: 40.3%
17,O=C(Nc1ccc(Br)c(Cl)c1)C1CC1,inconclusive: 33.2%
18,O=C(CSCc1cccc(CSCC(=O)Nc2ccccc2)n1)Nc1ccccc1,inconclusive: 37.4%
19,CCc1ccc(C(=O)N/N=C/c2ccncc2)s1,inconclusive: 47.6%
20,N#CC(C#N)=Cc1ccc(NC(=O)c2ccc(Br)cc2)cc1,active: 113%
21,O=C(NNC(=S)NC(=O)c1ccco1)c1ccc(NC(=O)c2ccccc2)cc1,inactive: -4.36%
22,Cc1ccc(OC(=O)c2ccc(C)c(C)c2)cn1,inconclusive: 31.4%
23,C/C(=N\Nc1nccnc1Cl)c1c(F)c(F)c(F)c(F)c1F,inactive: -0.618%

row,Structure (SMILES),activation
1,COc1ccc(-n2c(SCC(N)=O)nnc2-c2ccco2)cc1,inactive: 0.772%
2,CN1CCN(C(=O)c2ccccc2-c2nc(-c3ccc(Cl)cc3)no2)CC1,inactive: 3.91%
3,COc1ccc(CCNC(=O)CCCOc2ccc(C)cc2)cc1OC,inconclusive: 41.1%
4,O=S(Cc1cc(Sc2ccccc2)nc(-c2ccccc2)n1)c1ccccc1 (configuration not stated),inconclusive: 32.6%
5,COc1cc(/C=N/NC(=O)c2ccc(N3CCCC3=O)cc2)ccc1O,active: 82.8%
6,COc1ccc(C(C)NC(=S)NCc2ccc(F)cc2)cc1 (configuration not stated),inconclusive: 67.3%
7,Cc1cc(NC(=S)NC(=O)CC(C)C)ccc1Br,inactive: 8.64%
8,O=C(CC1CCCC1)N1CCN(S(=O)(=O)c2ccc(F)cc2)CC1,inconclusive: 32.7%
9,CCN(CC)c1ccc(NC(=O)c2ccc(=O)[nH]c2)cc1S(=O)(=O)Nc1ccc(OC)cc1,inconclusive: 58.5%
10,COCCCNC(=S)Nc1cc2oc3ccccc3c2cc1OC,inactive: 5.76%
11,Cc1cccc(N2CCN(S(=O)(=O)c3c(C)nc4scc(C)n4c3=O)CC2C)c1 (configuration not stated),inconclusive: 38%
12,CC(=O)c1c(C)[nH]c(C(=O)OCc2ccc(F)cc2Cl)c1C,inconclusive: 37.9%
13,Cc1ccc(NC(=O)COC(=O)CSC(=S)N2CCOCC2)cc1,inconclusive: 53.1%
14,Cc1ccc(Oc2cnc3ccccc3n2)cc1,inconclusive: 41.8%
15,Cc1nc(N2CCN(c3ccccn3)CC2)c2c(C)c(C(=O)Nc3ccc(F)cc3)sc2n1,inconclusive: 47%
16,O=C1CC[C@@H](OCc2ccccc2)CCN1CC[C@H](Sc1ccccc1)c1ccccc1,inconclusive: 59.7%
17,CN(C)CCCNc1nc2sc3c(c2c(=O)n1CCc1ccccc1)CCCCC3,inactive: 3.68%
18,CCOC(=O)c1cccc(NC(=O)c2cc3ccccc3o2)c1,inconclusive: 61.1%
19,N#C/C(=N\Nc1ccc(Cl)cc1)C(N)=S,inactive: -1.98%
20,CC1(C)CC(NC(=O)c2ccc(-c3ccc([N+](=O)[O-])cc3)o2)CC(C)(C)N1,inactive: -4.62%
21,O=C(C1CCC1)N1CCN(c2ccccc2)CC1,inconclusive: 33.1%
22,COc1ccc(-c2sc3ccccc3c2C#CC2(O)CCCCC2)cc1,inactive: 24.3%
23,Fc1c(F)c(-n2nnc3ccccc32)c(F)c(F)c1Cl,inconclusive: 41.2%

# From PubChem BioAssay AID540275 (National Center for Advancing Translational Sciences (NCATS), 2011)
